# Where two headings read alike, the source gives them in different places. These are yes or no findings as the source states them, for the method shown. In cells and extracts the contact can be indirect. Here binding means that the protein was enriched with, or labelled near, the bait; the list need not be complete. Where a sequence is shown, tags or fusion partners need not be part of it.
# Amino acid sequences for entries named in this document (tags omitted).
# UniProt P18613: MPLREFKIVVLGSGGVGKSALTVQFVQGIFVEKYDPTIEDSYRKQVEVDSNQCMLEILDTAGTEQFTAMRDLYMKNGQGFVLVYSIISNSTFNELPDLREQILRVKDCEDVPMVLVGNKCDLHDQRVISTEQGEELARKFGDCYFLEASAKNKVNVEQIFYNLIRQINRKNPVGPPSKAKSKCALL
# Legend:
# [1] = biological target: T1, His/Flag-tagged Pianissimo (Dictyostelium) (UniProt O77203); experiment: affinity purification with mass spectrometry; sequential His-Flag purification of HF-Pia from developed piaA null cells stimulated with 10 uM cAMP for 10 sec; wild-type cells as control
# T1 sequence: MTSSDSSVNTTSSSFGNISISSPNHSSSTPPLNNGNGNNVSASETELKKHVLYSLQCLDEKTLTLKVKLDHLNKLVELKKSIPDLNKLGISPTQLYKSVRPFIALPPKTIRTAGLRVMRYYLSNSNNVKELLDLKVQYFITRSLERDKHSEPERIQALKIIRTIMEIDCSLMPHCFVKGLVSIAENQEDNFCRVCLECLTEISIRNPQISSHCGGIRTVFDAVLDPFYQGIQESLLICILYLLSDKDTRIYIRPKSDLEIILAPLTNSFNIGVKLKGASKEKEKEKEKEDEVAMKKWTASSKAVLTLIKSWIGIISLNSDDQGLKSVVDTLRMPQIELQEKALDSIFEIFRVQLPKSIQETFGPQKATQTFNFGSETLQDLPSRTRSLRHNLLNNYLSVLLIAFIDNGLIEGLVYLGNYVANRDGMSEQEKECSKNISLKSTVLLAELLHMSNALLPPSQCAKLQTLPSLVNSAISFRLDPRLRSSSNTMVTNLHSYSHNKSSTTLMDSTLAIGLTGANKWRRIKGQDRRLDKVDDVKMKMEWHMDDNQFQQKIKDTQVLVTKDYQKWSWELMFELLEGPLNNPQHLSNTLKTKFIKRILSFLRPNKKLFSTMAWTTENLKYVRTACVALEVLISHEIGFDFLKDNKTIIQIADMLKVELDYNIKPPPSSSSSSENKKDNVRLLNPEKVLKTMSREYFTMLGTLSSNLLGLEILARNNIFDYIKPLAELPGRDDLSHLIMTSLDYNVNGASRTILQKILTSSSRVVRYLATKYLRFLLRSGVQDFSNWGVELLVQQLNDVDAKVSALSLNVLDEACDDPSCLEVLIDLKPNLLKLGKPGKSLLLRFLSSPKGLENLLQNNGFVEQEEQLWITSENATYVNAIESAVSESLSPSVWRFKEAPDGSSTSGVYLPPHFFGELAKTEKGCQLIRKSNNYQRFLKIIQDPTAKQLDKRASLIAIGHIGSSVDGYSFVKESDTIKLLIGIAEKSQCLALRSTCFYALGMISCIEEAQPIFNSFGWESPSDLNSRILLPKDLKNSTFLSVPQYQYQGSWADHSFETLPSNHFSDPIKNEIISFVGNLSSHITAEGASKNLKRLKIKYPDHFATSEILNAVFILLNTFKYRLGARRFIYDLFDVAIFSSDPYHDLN
# [2] = biological target: T1, His/Flag-tagged Pianissimo (Dictyostelium); experiment: as above; remark: listed apart in the source
Molecule,binding [1],binding [2]
Formin A (Dictyostelium),binds,–
"Rap1 (small GTPase), co-purified with HF-Pia (from UniProt P18613 1-186)",binds,–
Rac1A (from UniProt P34144 1-194),binds,–
"Rab11A (protein, UniProt P36412 1-214) MTSKGSQEEYDYLYKIVLIGDSGVGKSNLLSRFTRNEFSLETKSTIGVEFATRTIQTEGKTIKAQVWDTAGQERYRAITSAYYRGAVGALLVYDIAKQATYKSVERWILELRENADRNIEIMLVGNKSDLRHLREVSTDEAKEFSEKHKLTFIETSALDSSNVELAFQNILTQIYHIMSRPSHSTGPQTTIDSNTETIILPTTSEPPAAKSGCC",–,binds
"RabC (protein, UniProt P34143 1-196) MEEEILYKIILVGESGVGKSSILVRFTDNTFSQHFAPTLGVDFNVKTIRNKETGQTVKLQLWDTAGQERFKSITQTFYRGSHGVIVVYDVTDPKSFERCKNWVEDINQYTQDGMIIILVGNKSDMVAQRKVTFEQGQEMAEQLKTKFLEVSAKENNGVTQVFDLLVQDIEATMKNSKVAQNQLNLNSEVGQKRGCC",–,binds

# From PMC4865869
